24 molecules from article PMC4981497 can be followed below.

Chains of the proteins cited; added tags and fusions are not shown. Lines headed by an entry give the natural chain unless they say otherwise; changes in a name come on top. Residues count along the entry.
UniProt P05205: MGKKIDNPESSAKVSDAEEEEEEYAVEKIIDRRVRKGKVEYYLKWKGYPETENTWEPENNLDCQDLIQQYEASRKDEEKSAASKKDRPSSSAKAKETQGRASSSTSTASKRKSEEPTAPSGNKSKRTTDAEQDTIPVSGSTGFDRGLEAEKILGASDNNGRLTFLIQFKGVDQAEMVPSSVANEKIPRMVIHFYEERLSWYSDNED
UniProt Q24560: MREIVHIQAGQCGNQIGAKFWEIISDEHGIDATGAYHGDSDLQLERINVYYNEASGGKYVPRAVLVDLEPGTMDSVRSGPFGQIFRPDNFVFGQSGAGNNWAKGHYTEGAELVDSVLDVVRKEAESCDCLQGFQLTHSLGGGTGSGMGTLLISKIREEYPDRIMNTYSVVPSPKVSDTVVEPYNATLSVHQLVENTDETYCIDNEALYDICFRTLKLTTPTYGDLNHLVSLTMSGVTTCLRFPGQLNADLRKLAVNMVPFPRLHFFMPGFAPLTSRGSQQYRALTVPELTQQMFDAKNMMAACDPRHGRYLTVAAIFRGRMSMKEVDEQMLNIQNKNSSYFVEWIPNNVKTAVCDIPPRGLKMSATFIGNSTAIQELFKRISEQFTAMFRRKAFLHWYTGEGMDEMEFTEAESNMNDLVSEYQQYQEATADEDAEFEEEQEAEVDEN
UniProt P29844, residues 19-656: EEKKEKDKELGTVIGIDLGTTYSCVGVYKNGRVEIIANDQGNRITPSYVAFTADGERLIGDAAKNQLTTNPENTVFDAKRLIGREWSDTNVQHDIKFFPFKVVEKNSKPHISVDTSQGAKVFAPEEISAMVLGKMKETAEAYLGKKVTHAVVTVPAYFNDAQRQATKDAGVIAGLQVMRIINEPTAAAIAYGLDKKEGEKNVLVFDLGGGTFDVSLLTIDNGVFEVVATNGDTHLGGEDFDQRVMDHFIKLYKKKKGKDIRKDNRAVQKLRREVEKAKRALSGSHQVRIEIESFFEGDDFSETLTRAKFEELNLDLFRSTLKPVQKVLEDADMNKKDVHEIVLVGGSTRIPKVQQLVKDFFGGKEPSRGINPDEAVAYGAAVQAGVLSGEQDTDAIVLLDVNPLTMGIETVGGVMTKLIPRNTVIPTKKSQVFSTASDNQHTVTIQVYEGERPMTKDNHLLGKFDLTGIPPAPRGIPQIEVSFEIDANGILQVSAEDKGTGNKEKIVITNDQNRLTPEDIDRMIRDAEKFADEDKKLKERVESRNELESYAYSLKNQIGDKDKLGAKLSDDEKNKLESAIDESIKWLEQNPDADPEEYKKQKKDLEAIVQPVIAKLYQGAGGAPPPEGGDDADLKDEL
UniProt P11147: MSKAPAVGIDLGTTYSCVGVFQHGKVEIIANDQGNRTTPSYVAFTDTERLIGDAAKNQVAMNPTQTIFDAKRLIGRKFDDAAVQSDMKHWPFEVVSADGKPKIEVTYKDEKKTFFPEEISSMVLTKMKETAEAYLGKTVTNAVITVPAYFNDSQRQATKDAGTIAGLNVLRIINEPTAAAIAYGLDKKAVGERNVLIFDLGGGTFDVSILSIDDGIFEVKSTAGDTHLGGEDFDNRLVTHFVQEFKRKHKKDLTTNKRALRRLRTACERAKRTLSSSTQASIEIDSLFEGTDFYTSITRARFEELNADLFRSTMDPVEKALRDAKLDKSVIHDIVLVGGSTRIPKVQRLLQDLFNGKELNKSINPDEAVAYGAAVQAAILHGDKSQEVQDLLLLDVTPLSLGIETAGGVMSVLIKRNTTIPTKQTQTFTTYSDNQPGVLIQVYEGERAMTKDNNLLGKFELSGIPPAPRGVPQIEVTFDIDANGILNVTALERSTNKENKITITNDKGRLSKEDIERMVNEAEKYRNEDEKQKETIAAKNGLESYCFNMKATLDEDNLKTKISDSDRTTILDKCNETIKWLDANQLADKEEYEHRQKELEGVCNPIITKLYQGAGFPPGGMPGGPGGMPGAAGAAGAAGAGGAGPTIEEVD
UniProt P12982: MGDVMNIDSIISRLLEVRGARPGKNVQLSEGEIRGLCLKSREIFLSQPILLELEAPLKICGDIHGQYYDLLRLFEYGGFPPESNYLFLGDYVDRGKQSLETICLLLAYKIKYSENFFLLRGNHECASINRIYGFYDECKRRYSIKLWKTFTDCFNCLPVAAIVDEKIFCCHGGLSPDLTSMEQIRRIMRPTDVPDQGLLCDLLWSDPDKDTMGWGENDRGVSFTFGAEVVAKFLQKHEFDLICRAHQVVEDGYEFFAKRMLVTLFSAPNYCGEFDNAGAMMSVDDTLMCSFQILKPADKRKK
UniProt P02828: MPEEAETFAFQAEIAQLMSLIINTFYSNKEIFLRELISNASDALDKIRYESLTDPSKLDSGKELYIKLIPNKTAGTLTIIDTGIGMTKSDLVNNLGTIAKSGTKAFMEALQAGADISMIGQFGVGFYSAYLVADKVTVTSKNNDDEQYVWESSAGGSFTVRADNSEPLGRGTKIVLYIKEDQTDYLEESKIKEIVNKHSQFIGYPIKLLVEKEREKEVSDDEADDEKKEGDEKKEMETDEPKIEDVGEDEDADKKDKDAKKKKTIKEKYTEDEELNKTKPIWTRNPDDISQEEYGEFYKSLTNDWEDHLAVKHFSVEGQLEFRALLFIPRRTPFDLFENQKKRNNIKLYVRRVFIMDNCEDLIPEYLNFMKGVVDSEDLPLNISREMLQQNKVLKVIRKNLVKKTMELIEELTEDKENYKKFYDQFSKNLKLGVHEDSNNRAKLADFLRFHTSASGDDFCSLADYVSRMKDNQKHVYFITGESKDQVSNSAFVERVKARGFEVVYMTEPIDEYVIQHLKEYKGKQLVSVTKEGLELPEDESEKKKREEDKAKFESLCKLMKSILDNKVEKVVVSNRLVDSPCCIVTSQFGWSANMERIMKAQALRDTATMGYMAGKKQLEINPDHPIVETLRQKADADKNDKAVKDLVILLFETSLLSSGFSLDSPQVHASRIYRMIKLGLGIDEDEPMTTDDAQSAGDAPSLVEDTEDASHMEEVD
UniProt P38979: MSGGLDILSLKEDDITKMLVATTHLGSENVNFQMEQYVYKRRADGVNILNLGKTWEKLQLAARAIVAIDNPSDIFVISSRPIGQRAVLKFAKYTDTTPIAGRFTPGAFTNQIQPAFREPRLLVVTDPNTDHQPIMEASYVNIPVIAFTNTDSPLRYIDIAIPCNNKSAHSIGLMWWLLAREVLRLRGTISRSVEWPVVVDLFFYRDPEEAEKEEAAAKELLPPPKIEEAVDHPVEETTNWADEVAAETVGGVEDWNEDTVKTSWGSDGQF
UniProt Q9V3G1: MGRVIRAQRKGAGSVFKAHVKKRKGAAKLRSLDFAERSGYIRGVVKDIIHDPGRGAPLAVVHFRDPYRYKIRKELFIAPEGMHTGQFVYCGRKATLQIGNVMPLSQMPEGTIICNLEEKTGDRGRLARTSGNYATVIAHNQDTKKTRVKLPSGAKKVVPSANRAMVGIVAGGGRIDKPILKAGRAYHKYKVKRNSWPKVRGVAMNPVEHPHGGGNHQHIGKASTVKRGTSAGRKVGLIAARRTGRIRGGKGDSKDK
UniProt O02649, residues 58-573: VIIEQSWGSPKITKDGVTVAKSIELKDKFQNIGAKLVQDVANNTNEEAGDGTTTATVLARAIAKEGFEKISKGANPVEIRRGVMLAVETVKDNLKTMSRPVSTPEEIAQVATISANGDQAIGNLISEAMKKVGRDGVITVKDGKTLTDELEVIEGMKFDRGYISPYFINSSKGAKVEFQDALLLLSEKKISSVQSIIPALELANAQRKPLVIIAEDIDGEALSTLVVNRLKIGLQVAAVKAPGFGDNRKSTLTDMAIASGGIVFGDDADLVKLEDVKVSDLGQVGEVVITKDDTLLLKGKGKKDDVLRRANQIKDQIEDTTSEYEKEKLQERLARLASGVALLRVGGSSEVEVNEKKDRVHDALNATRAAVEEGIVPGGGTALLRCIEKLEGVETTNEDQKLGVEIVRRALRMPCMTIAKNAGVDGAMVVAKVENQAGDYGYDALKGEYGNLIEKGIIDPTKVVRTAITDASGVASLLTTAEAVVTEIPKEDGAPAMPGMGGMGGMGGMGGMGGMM
UniProt P29845: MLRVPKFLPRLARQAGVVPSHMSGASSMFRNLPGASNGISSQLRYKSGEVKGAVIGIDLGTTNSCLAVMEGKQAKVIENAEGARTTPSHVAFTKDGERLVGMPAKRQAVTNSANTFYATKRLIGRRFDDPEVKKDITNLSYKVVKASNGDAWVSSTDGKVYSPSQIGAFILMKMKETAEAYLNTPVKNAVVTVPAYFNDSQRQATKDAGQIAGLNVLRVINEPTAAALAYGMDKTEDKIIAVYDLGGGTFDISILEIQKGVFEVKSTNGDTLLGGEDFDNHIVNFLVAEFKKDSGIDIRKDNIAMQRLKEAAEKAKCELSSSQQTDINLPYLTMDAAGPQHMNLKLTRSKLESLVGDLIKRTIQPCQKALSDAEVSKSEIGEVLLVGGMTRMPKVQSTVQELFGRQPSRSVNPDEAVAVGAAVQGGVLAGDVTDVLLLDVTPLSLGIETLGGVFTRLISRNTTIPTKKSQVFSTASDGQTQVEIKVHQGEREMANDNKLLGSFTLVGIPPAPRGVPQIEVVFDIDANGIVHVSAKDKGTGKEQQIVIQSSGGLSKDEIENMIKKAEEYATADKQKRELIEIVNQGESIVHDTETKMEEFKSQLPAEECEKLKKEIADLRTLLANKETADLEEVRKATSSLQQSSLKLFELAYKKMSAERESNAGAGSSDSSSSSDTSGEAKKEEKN
UniProt Q02748: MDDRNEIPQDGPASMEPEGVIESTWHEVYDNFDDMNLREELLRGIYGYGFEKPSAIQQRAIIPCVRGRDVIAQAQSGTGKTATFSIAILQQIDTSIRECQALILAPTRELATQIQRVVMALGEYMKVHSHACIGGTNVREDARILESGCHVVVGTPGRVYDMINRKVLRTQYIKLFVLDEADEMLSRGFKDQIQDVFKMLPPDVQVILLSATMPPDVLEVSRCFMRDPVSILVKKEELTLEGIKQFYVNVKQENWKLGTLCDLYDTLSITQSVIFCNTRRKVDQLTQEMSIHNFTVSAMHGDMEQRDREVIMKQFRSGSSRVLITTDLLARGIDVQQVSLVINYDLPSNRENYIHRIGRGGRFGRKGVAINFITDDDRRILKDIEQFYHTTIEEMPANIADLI
UniProt P08985: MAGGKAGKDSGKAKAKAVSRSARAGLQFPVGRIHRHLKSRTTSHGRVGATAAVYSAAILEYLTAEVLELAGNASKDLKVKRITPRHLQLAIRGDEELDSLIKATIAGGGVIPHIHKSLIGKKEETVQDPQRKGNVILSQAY
UniProt Q27268: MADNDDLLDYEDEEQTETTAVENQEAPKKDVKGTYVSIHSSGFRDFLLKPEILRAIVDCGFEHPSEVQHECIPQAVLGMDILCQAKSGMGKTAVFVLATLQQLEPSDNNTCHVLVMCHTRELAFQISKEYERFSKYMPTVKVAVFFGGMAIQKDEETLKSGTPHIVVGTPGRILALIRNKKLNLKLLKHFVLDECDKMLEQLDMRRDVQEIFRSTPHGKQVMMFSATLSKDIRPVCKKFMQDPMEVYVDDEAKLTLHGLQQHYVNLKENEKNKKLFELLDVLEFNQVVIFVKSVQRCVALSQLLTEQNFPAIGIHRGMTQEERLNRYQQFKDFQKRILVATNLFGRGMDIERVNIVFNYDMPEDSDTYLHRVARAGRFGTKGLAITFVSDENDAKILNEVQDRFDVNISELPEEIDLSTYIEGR
UniProt P45975: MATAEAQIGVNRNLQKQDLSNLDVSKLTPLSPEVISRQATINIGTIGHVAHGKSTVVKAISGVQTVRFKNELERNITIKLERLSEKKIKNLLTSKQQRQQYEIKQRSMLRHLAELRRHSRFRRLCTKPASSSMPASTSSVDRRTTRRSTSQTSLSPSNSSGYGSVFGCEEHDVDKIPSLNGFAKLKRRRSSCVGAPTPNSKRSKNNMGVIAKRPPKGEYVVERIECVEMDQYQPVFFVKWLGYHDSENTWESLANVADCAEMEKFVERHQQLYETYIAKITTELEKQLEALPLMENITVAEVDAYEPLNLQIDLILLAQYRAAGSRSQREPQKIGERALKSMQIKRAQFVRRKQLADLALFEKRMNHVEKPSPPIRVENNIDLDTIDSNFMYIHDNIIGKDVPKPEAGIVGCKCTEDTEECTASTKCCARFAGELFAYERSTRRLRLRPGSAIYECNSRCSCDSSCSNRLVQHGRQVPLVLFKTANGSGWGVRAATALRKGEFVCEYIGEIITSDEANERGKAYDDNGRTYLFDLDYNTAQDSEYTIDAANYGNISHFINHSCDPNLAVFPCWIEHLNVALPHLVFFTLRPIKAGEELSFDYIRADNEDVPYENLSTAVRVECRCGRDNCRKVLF

These are yes or no findings as the source states them, for the method shown. In cells and extracts the contact can be indirect. A yes stands for co-enrichment or nearness to the bait. Other partners may have been found.

B1: FK506-binding protein 1 (protein, UniProt P54397 1-357)
chain: MSMFWGLNMKPERKYSQTIIKSFHISGVALDKGQEAKLYLAAEKQEYIVATVTKAIPQVALDLNFSKGDRIMFYTAGDASVSLLGYLHDIDSEDDEDDDQMTIENLLNSKAIKNSKKSEDDEDENESGEEDEEDTDDDSQIIEEYESFLENGEEEDDDDVDEDNEESGEEDEQDSDDSEAEEEQPKAKVAKLSPGASAKKSGKEQNGVAKKEEAKQQQKKKEKPEAKKEQPKAKEPAKQQPASKDPRTITGGVKIVDQVVGKGEEAKQGKRVSVYYIGRLQSNNKTFDSLLKGKPFKFALGGGEVIKGWDVGVAGMKVGGKRVITCPPHMAYGARGAPPKIGPNSTLVFEVELKAVH
B2: La autoantigen-like (protein, UniProt P40796 1-390)
chain: MAEVAETPSVEAQEEVAQPAEAQVLEAKNGDAKKDPAPAAEEAAGGFTKQERAIIRQVEYYFGDANLNRDKFLREQIGKNEDGWVPLSVLVTFKRLASLSTDLSEIVAALNKSEEGLVEISEDKLSLRRHPERPIPEHNEERRKEIQERTAYAKGFPLDSQISELLDFAANYDKVVNLTMRKHYDKPTKSYKFKGSIFLTFETKDQAKAFLEQEKIVYKERELLRKWQVDYLKEKQEEYAQKNEKRKNKKEAKPEPAFELPKNAIVVFEGAPETSSREEIREAFEKIKDFEVAYIEFAKGETKGSVRLTEADAAEKYIAKVEEGKLKFKDEVSLSLRKATEEEEKEFIDKAIEFMKKRRDFTRNKGKRFNRKRHGGNDHKHGGGKKARGD
B3: tsr (protein, UniProt P45594 1-148)
chain: MASGVTVSDVCKTTYEEIKKDKKHRYVIFYIRDEKQIDVETVADRNAEYDQFLEDIQKCGPGECRYGLFDFEYMHQCQGTSESSKKQKLFLMSWCPDTAKVKKKMLYSSSFDALKKSLVGVQKYIQATDLSEASREAVEEKLRATDRQ
B4: RpLP0 (protein, UniProt P19889 1-317)
chain: MVRENKAAWKAQYFIKVVELFDEFPKCFIVGADNVGSKQMQNIRTSLRGLAVVLMGKNTMMRKAIRGHLENNPQLEKLLPHIKGNVGFVFTKGDLAEVRDKLLESKVRAPARPGAIAPLHVIIPAQNTGLGPEKTSFFQALSIPTKISKGTIEIINDVPILKPGDKVGASEATLLNMLNISPFSYGLIVNQVYDSGSIFSPEILDIKPEDLRAKFQQGVANLAAVCLSVGYPTIASAPHSIANGFKNLLAIAATTEVEFKEATTIKEYIKDPSKFAAAASASAAPAAGGATEKKEEAKKPESESEEEDDDMGFGLFD
B5: Lysine (K)-specific demethylase 4A (protein, UniProt Q9V333 1-495)
chain: MSTRSSFADEEQNKVPRIMTFRPSYEEFQNFSAYIEYIESRGAHLAGLAKIQPPAEWVPRKSGYDIDNINMTIPAPICQVVTGAHGVYQQINIQQRRQMTLRQFMEKANSELHQTPRHFDYDDLERKYWKNITYISPLYAADVKGSLSDEDLDVWNIGRLDTILNLVNTDYNIIIDGVNTAYLYFGMWKSSFAWHTEDMDLYSINYLHFGAPKTWYAIPPAYGRRLEKLANETFSENYQECNAYLRHKMTMISPKVLRQHNIPYNKITQEAGEIMITFPFGYHAGFNHGFNGAESTNFASKRWIEYGKRASICRCRSDMVKISMETFVRRFQPERYDNWLKGQDMGCHPEEPGKICAAAPPTLNEYEKQENLRAAKSEEESPQKRGCSLAGNGCERNAESAEDVDDKASVSSYSSCRQLQPVVKLRKLPTIASVPEPSSAPKRYDFNTEAVVRVKRLWNELPCPDRGANLLTNGVVKNTKRMRFQTKVLTLDDED
B6: female lethal d (protein, UniProt Q9Y091 1-536)
chain: MSVAAMTMDDQRPCMNSYDKMPPTKYEQNLNILNSSQNSGATGGPASPTPSGLEDHHHHHHPHPHHHHHQEQQQQQQQQQHLQQQQQQQQQQHAAAVAEAVAAAEQRQRLLEDEIENLKLEQVRMAQQCADAQRREKILMRRLANKEQEFQDYVSQIAEYKAQQAPTALALRTALLDPAVNLLFERLKKELKATKAKLEETQNELSAWKFTPDSNTGKRLMAKCRLLYQENEELGKMTSNGRLAKLETELAMQKSFSEEVKKSQSELDDFLQELDEDVEGMQSTILFLQQELKTTRDRIQTLEKENAQLKQAIKDEVVAPAAATNGGTNTTINKLETIHEDACMANNPTNPDCYNGNTNNEQIAAVPQIPLSDDGSNMNGNAARLARKRNYQEEEALPTVVVVPTPTPVGNNVQEAPPIREVTAPRTLPPKKSKLRGITTRRNSQLEEDHQPVTTPVAVPMIVDNAVAGMASEEAAAAAAAVNNSNTGIIPETGVQVGVPVEGGDPGAPAAPGRILTRRRSVRMQQNGSGAVDYST

The target of this test is Heterochromatin Protein 1a tagged with 3X-FLAG and StrepII (3X-FLAG-Myc-StrepII-PP-HP1a) (D. melanogaster) (UniProt P05205). Kind of test: affinity purification with mass spectrometry; six purifications of FS-HP1a from S2 cell extracts (single-step on anti-3XFLAG M2 beads, or tandem on anti-3XFLAG M2 then Strep-Tactin beads); benzonase-treated extracts, HP1a extracted with 300 mM NaOAc, 4°C; cells mock-exposed or 10 or 60 min after 10 Gy of X-rays; LC-MS/MS; S2 cells lacking FS-HP1a as negative control.
For the molecule betaTub56D (from UniProt Q24560 1-447), the binding result is given as “binds”. For Hsc70-3 (from UniProt P29844 19-656), the binding result was “binds”.

Regarding Hsc70-4 (from UniProt P11147 1-651), the binding entry was “binds”. For CG7172 (from UniProt Q9VP13) the value was “binds”; for Pp1-87B (from UniProt P12982 1-302), “binds”; for CG8258 (from UniProt A1Z7K1), “binds”. For CG8108 (from UniProt Q9VT61) the value was “binds”.

Hsp83 (from UniProt P02828 1-717): the binding entry was “binds”. For sta (from UniProt P38979 1-270) the value was “binds”. For Oddjob (CG7357) (from UniProt Q9VEF0) the value was “binds”. The value for EF2 (from UniProt P13060 1-844) was “binds”. Take RpL8 (from UniProt Q9V3G1 1-256): the binding entry is given as “binds”. The value for Hsp60 (from UniProt O02649 58-573) was “binds”; that for Hsc70-5 (from UniProt P29845 1-686) was “binds”; that for eIF-4a (from UniProt Q02748 1-403) was “binds”. Take His2Av (from UniProt P08985 1-141): the binding result is listed as “binds”. For the molecule Hel25E (from UniProt Q27268 1-424), the binding result is given as “binds”. For “Suppressor of variegation 3-9 (from UniProt P45975 1-635)” the value was “binds”; for B1, “binds”.

Consider B2, for which the binding entry is “binds”. For B3 the value was “binds”; for B4, “binds”. As to B5, the binding entry is “binds”. For B6 the value was “binds”.
